Paper PMC5220304
Results are given in words; binding and its absence hold for the method and conditions named. For some assays here: In cells and extracts the contact can be indirect. Some results given as binding are weak or reduced against the parent protein; the word gives no strength.

Chains of the proteins cited; added tags and fusions are not shown.
UniProt Q336P5: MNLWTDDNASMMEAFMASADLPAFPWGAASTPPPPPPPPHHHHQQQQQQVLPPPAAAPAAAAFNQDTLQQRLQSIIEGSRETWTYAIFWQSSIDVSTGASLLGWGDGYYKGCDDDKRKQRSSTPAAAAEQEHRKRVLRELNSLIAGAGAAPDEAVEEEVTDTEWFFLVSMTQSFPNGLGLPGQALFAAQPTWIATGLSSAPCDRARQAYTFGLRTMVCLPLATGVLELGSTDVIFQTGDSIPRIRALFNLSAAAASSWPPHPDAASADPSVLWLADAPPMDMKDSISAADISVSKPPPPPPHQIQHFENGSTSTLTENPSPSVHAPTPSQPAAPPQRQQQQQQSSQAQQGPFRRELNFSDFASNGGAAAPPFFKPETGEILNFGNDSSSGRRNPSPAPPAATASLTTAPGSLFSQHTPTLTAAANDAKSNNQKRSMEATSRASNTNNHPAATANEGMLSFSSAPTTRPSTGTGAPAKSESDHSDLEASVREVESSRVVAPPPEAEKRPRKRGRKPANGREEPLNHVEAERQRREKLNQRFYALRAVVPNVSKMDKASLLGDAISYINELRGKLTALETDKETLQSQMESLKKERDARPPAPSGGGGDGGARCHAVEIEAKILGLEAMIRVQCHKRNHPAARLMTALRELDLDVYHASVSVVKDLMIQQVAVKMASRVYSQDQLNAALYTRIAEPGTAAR

Experiments:
[1] = molecular target: OsMYC2 from the wheat germ expression system (biotinylated His-Bls-OsMYC2 and FLAG-tagged OsMYC2) (rice (Oryza sativa)) (UniProt Q336P5); experiment: AlphaScreen or HTRF; crude wheat germ translation mixtures; biotinylated His-Bls-OsMYC2 (streptavidin-coated donor beads) with FLAG-tagged proteins (anti-DYKDDDDK antibody, Protein A-coated acceptor beads); 100 mM Tris-HCl pH 8.0, 100 mM NaCl, 0.1% Tween20, 1 mg/mL BSA, 25 °C, 1 h
[2] = molecular target: OsMYC2 fused to a half of EYFP (nYFP-OsMYC2 and cYFP-OsMYC2) (rice (Oryza sativa)) (UniProt Q336P5); experiment: split reporter; BiFC: nEYFP-fused protein, cEYFP-fused protein and DsRed1 under the CaMV 35S promoter, bombarded into onion epidermal cells; 25 °C in darkness for 24 h; YFP fluorescence by microscopy

Substance: OsMYC2 from the wheat germ expression system (biotinylated His-Bls-OsMYC2 and FLAG-tagged OsMYC2) (from UniProt Q336P5 1-699)
- binding [1]: binds

Substance: OsMYC2 fused to a half of EYFP (nYFP-OsMYC2 and cYFP-OsMYC2) (from UniProt Q336P5 1-699)
- binding [2]: binds
